In article PMC6468676, “The Protein Tyrosine Phosphatase H1 PTPH1 Supports Proliferation of Keratinocytes and is a Target of the Human Papillomavirus Type 8 E6 Oncogene” (Cells, 2019) one finds binding data, which are given here for four molecules.

The chains behind the UniProt entries cited, without tags or fusion partners.
UniProt P06428: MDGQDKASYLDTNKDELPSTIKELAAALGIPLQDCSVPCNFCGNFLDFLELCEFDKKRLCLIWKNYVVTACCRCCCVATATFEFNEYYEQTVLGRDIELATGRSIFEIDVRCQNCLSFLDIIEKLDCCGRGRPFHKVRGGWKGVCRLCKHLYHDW

No constants are given. Whether binding was seen depends on the method and setting. In cells and extracts the contact can be indirect. Some results given as binding are weak or reduced against the parent protein; the word gives no strength. For some of these results: Where a sequence is shown, tags or fusion partners need not be part of it.

The target in test [1] is FLAG-tagged HPV8E6 (E6 oncoprotein of human papillomavirus type 8), wild type (human papillomavirus type 8) (UniProt P06428). The test is described as follows: co-IP; C33A cells co-transfected with Myc-PTPH1 (wt or deletion mutants) and pXJ41-FLAG-HPV8E6 (wt or point mutants); extracts incubated with FLAG beads, co-precipitated Myc-PTPH1 detected by WB.
Another test concerns the target GST-PTPH1 (UniProt P26045). The test is described as follows: pull-down; bacterially expressed, purified GST-PTPH1 incubated with extracts from cells expressing FLAG-p38γ alone or together with FLAG-HPV8E6; blot developed with FLAG antibody; only the target purified.
Test [2] concerns the target T1, FLAG-p38γ (mitogen activated protein kinase MAPK12) (UniProt P53778).
T1 sequence: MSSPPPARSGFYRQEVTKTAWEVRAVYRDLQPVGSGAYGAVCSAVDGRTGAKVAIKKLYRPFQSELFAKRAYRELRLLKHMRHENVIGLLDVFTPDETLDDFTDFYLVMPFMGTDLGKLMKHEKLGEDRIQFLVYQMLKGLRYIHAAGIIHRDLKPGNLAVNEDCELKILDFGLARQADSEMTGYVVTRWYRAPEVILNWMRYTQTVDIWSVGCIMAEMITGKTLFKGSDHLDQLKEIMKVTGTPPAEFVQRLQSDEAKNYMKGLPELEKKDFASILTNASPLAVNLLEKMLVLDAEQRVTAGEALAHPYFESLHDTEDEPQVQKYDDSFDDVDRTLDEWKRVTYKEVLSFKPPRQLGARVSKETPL
The test is described as follows: co-IP; extracts from C33A cells expressing FLAG-p38γ and Myc-PTPH1, with or without HA-HPV8E6; FLAG beads; blots developed with epitope tag antibodies.

As to “Myc-PTPH1ΔBand4.1ΔPTPc (central amino acids 334-669) (from UniProt P26045 334-669) (domain or fragment)”, in test [1], the binding entry is “binds”.

As for “Myc-tagged protein tyrosine phosphatase H1 (PTPH1), full length (from UniProt P26045 1-913) (enzyme)”, the binding entry in test [1] was “binds”.

B1: FLAG-p38γ (mitogen activated protein kinase MAPK12) (enzyme, UniProt P53778 1-367)
chain: T1 sequence
On to B1, for which the binding result with GST-PTPH1 is “binds”.

B2: Myc-tagged protein tyrosine phosphatase H1 (PTPH1), full length (enzyme, UniProt P26045 1-913, looked up)
chain: MTSRLRALGGRINNIRTSELPKEKTRSEVICSIHFLDGVVQTFKVTKQDTGQVLLDMVHNHLGVTEKEYFGLQHDDDSVDSPRWLEASKAIRKQLKGGFPCTLHFRVRFFIPDPNTLQQEQTRHLYFLQLKMDICEGRLTCPLNSAVVLASYAVQSHFGDYNSSIHHPGYLSDSHFIPDQNEDFLTKVESLHEQHSGLKQSEAESCYINIARTLDFYGVELHSGRDLHNLDLMIGIASAGVAVYRKYICTSFYPWVNILKISFKRKKFFIHQRQKQAESREHIVAFNMLNYRSCKNLWKSCVEHHTFFQAKKLLPQEKNVLSQYWTMGSRNTKKSVNNQYCKKVIGGMVWNPAMRRSLSVEHLETKSLPSRSPPITPNWRSPRLRHEIRKPRHSSADNLANEMTYITETEDVFYTYKGSLAPQDSDSEVSQNRSPHQESLSENNPAQSYLTQKSSSSVSPSSNAPGSCSPDGVDQQLLDDFHRVTKGGSTEDASQYYCDKNDNGDSYLVLIRITPDEDGKFGFNLKGGVDQKMPLVVSRINPESPADTCIPKLNEGDQIVLINGRDISEHTHDQVVMFIKASRESHSRELALVIRRRAVRSFADFKSEDELNQLFPEAIFPMCPEGGDTLEGSMAQLKKGLESGTVLIQFEQLYRKKPGLAITFAKLPQNLDKNRYKDVLPYDTTRVLLQGNEDYINASYVNMEIPAANLVNKYIATQGPLPHTCAQFWQVVWDQKLSLIVMLTTLTERGRTKCHQYWPDPPDVMNHGGFHIQCQSEDCTIAYVSREMLVTNTQTGEEHTVTHLQYVAWPDHGVPDDSSDFLEFVNYVRSLRVDSEPVLVHCSAGIGRTGVLVTMETAMCLTERNLPIYPLDIVRKMRDQRAMMVQTSSQYKFVCEAILRVYEEGLVQMLDPS
B2: in test [2], the binding result is on record as “binds”.
